From PMC7848789 (SLAS discovery : advancing life sciences R & D, 2019)

Assays:
[1] = tested on: HDAC class I and II activity in HEK293T cells; assay: HDAC-Glo I/II cellular assay in HEK293T cells; format: cell-based; conditions: qHTS; 1 hour; active = CRC class 1 and 2 and AUC>100
[2] = tested on: HDAC class I and II activity in HeLa cells; assay: HDAC-Glo I/II cellular assay in HeLa cells; format: cell-based; conditions: qHTS; 1 hour; active = CRC class 1 and 2 and AUC>100

## Cc1ccc(C(=O)NCCCCCC(=O)Nc2ccccc2N)cc1 [RG2833]
[1]
  Activity outcome in HEK293T cellular HDAC-Glo I/II assay: relatively weak activity (below the activity cutoff)
[2]
  Activity outcome in HeLa cellular HDAC-Glo I/II assay: relatively weak activity (below the activity cutoff)
